Results taken from publication PMC7658486.
No constants are given. Whether binding was seen depends on the method and setting. For part of these data: Where a sequence is shown, tags or fusion partners need not be part of it.

B1: bovine IL-2, FLAG-tagged (ligand, UniProt P05016 21-155)
chain: APTSSSTGNTMKEVKSLLLDLQLLLEKVKNPENLKLSRMHTFDFYVPKVNATELKHLKCLLEELKLLEEVLNLAPSKNLNPREIKDSMDNIKRIVLELQGSETRFTCEYDDATVNAVEFLNKWITFCQSIYSTMT

Columns and labels:
Assay in all cases: flow cytometry on cells; live HEK293T cells co-transfected for a FLAG-tagged cytokine and a full-length (transmembrane) receptor alpha chain; two days after transfection stained with anti-FLAG M2 mAb; cytokine considered bound if the percentage of anti-FLAG-labeled cells was higher than in cells transfected for the cytokine alone
[1] = target: T1, bovine (full-length) IL-2Rα (cattle (Bos taurus)) (UniProt P12342)
T1 sequence: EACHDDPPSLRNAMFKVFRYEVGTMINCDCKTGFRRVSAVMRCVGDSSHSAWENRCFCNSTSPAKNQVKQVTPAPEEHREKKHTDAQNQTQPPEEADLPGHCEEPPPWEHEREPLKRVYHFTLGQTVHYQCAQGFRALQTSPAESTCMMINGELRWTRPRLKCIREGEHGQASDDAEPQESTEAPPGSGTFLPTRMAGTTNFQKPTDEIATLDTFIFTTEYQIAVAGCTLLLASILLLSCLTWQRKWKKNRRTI

[2] = target: trout (full-length) IL-15Rα (rainbow trout (Oncorhynchus mykiss))
[3] = target: bovine (full-length) IL-15Rα (cattle (Bos taurus))

Molecule | binding [1] | binding [2] | binding [3]
bovine IL-15L, FLAG-tagged (cattle (Bos taurus)) (ligand) | no binding |  | 
B1 |  | no binding | no binding
